In PMC3954883:
Results are given in words; binding and its absence hold for the method and conditions named.

Sequences of proteins named here, by UniProt entry; tags and fusion partners are left off. Residues count along the entry.
UniProt P02701, residues 25-152: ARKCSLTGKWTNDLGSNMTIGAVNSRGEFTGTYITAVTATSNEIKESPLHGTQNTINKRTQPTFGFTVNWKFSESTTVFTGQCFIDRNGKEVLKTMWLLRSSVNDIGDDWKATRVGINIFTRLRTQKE

Biological target: avidin from chicken (AVD) (chicken) (UniProt P02701)
Assay: condition: only after 20 min at 80°C in the absence of biotin; SDS-PAGE stability assay; as the stability assay, the sample without biotin after 20 min at 80°C; both purified

- binding: no binding
Substance: avidin from chicken (AVD) (from UniProt P02701 25-152)
